# Primary screen of a compound library

Data taken from ChEMBL document CHEMBL3988442, “University of Dundee, Small-Polar-MMV Screening Library” (2021).

T. brucei: 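Whole-parasite assay of Trypanosoma brucei over 72 hours; the read-out is not stated. Compounds at 30 µM. The record gives no direction; compounds that gave an IC50 in retests scored well above the rest, so higher reads as stronger inhibition. Values scatter widely below zero; nearly all retest evidence comes from the higher of the two concentrations used. About 64,000 compounds were tested under these conditions; 1.5% (about 940) showed 50% or more at least once.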
Leishmania in macrophages: 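Cell assay of Leishmania donovani living inside macrophages; the read-out is not stated. Tested at 30 µM. Direction is inferred from retests: higher values go with stronger inhibition. Size under these conditions: about 69,000 compounds, about 1,000 of them at 50% or above in at least one test.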

Results are given as percent effect.
The record does not define 0% and 100%; most values in the screen are far below 50% and negative numbers occur (in some assays of this library far below -100).
Compounds were drawn at random from those tested, without regard to their results.
Two or more numbers in one place are separate tests of the same structure; such repeats can differ widely.

structure: CCc1nc2n(n1)CC(Nc1cc(C)nc3ncnn13)CC2 (stereo not shown)
T. brucei: -89.04
Leishmania in macrophages: 11.49

structure: Cn1cccc1CN1CCC2(CC1)CN(c1ncccn1)CCO2.O=C(O)C(F)(F)F
T. brucei: -29.78
Leishmania in macrophages: 1.948

structure: O=C(c1cccnc1)N1CCCC(c2ccnc3nccn23)C1 (stereo not shown)
T. brucei: -7.351
Leishmania in macrophages: 8.115

structure: Cc1cc(C2CCC2)nc(N2CC(n3cccn3)C2)n1
T. brucei: -9.306
Leishmania in macrophages: 8.647

structure: O=C(O)C(F)(F)F.[H][C@@]12CN(Cc3cccc(C)n3)C[C@]1([H])C(=O)N(CCOC)C2
T. brucei: -4.158
Leishmania in macrophages: 25.64

structure: CCOc1ccc(Oc2cc(N)ccn2)cc1
T. brucei: -4.93
Leishmania in macrophages: 1.527

structure: [H][C@@]12COC[C@]1(COc1ccc(C#N)cn1)CN(Cc1ccoc1)C2
T. brucei: -24.45
Leishmania in macrophages: 40.7

structure: O=C(O)C(F)(F)F.O=C(O)C(F)(F)F.O=C(O)C(F)(F)F.O=C(O)C(F)(F)F.[H][C@@]12CCN(CCN(C)C)[C@@]1([H])CCN2Cc1cccnc1OC
T. brucei: -34.29
Leishmania in macrophages: 26.02 & 42.17

structure: COc1cccc(CN(C)C(=O)c2ccc(NC(C)=O)s2)c1OC
T. brucei: -25.7
Leishmania in macrophages: 52.82

structure: Cc1cc(C)c2[nH]c(C)c(CC(=O)N(C)CCN(C)C)c2c1.O=C(O)CC(O)(CC(=O)O)C(=O)O
T. brucei: -9.216
Leishmania in macrophages: 46.19

structure: CN(C)Cc1ccnc(NS(=O)(=O)CCc2ccccc2)c1
T. brucei: -35.73
Leishmania in macrophages: 29.97

structure: O=C(Nc1cnn(Cc2ccccc2)c1)N1CCN(CCO)CC1
T. brucei: -25.82
Leishmania in macrophages: 2.449

structure: COCCNc1c(-c2ccc(Cl)cc2)c(=O)c1=O
T. brucei: 1.303
Leishmania in macrophages: -0.4063

structure: CCc1cnc(CNC(=O)NCCCO)s1
T. brucei: -7.528
Leishmania in macrophages: 5.453

structure: CCc1cc(NCCCNS(C)(=O)=O)nc(-c2ccncc2)n1
T. brucei: -6.862
Leishmania in macrophages: 13.88

structure: CN1CCCC(c2cccc(-c3ccccc3F)n2)C1 (stereo not shown)
T. brucei: -37.04
Leishmania in macrophages: -13.82

structure: N#Cc1cccc(CN2CC3(CCCCN3c3cncnc3)CC2=O)c1.O=C(O)C(F)(F)F (stereo not shown)
T. brucei: -23.51
Leishmania in macrophages: -8.516 & -43.51

structure: Cc1ccccc1OCCN(C)Cc1noc(CC(C)C)n1
T. brucei: 2.713
Leishmania in macrophages: -11.29

structure: CCc1nc(C(=O)N2CCN(CCc3ccc(OC)cc3)CC2)c[nH]1
T. brucei: -117
Leishmania in macrophages: 22.53

structure: Cc1[nH]ncc1CCCNC(=O)N1CCCC(c2nncn2C)C1 (stereo not shown)
Leishmania in macrophages: -10.83

structure: CC(C)c1n[nH]c(C2CN(C(=O)CCc3cscn3)CCO2)n1 (stereo not shown)
Leishmania in macrophages: 2.064

structure: Cc1nnc(N2CCCC3(CN(c4cccc(F)c4)CCO3)C2)o1 (stereo not shown)
T. brucei: -43.7
Leishmania in macrophages: 16.31 & 1.224

structure: COc1cccc(CCC(=O)Nc2cnc3c(c2)c(C)nn3C)c1OC
T. brucei: -69.68
Leishmania in macrophages: -25.43

structure: Cn1ccnc1CN1C[C@@H](CN2CCC(CO)CC2)[C@@H](CO)C1
T. brucei: 2.674
Leishmania in macrophages: 2.292

structure: Cc1nn(C)c(Cl)c1C1CCCN1CC(=O)NC1CCCCC1 (stereo not shown)
T. brucei: 0.5695
Leishmania in macrophages: 2.458

structure: CN(C)CC1CN(Cc2coc(-c3cccs3)n2)CCO1 (stereo not shown)
T. brucei: -19.96
Leishmania in macrophages: -16.8

structure: Cc1nc(N(C)C2CCCCC2)ncc1C(C)NC(=O)c1cscn1 (stereo not shown)
T. brucei: -62.05
Leishmania in macrophages: -9.481

structure: N#CC1(C(=O)N2CCOC(c3ccc(Cl)cc3)C2)CCCC1 (stereo not shown)
T. brucei: -13.93
Leishmania in macrophages: 2.308

structure: CC(Cn1cccn1)NCc1csc(-c2ccc3c(c2)OCO3)n1 (stereo not shown)
T. brucei: -0.6567
Leishmania in macrophages: -10

structure: CNC(=O)C1CCCN(c2nc(-c3ccco3)nc3c2CCNCC3)C1 (stereo not shown)
T. brucei: -17.53
Leishmania in macrophages: 23

structure: CCc1noc(CN(C)C(=O)c2ccccc2-c2ncn[nH]2)n1
T. brucei: -2.613
Leishmania in macrophages: 9.36

structure: CC(C)=CCCC(C)(O)c1cc(C(N)=O)no1 (stereo not shown)
T. brucei: -17.13
Leishmania in macrophages: -5.329

structure: COCC(=O)N1CCC2(CC1)COCCN2Cc1ccc(F)cc1.O=C(O)C(F)(F)F
T. brucei: 14.27
Leishmania in macrophages: 26.03

structure: Cn1cccc1C(=O)N1CCc2onc(Cn3cccn3)c2C1
T. brucei: -28.71
Leishmania in macrophages: 27.17

structure: CC(=O)c1c(C)nn(S(=O)(=O)c2ccccc2)c1C
T. brucei: -57.82
Leishmania in macrophages: -5.009

structure: CN1CCCC2(CCN(S(=O)(=O)c3ccc(-c4cnco4)s3)C2)C1=O (stereo not shown)
T. brucei: -40.58
Leishmania in macrophages: -7.826

structure: Cc1ccc(NC(=O)c2cc(S(=O)(=O)N3CCCCC3)c[nH]2)cc1F
T. brucei: -33.42
Leishmania in macrophages: 9.79

structure: COCc1cc(O)nc(C2CCCN(Cc3cccc(OC)c3)C2)n1 (stereo not shown)
T. brucei: -0.6594
Leishmania in macrophages: 9.625 & -3.162

structure: Cc1noc(C2CCCN(C(=O)c3cncc(Br)c3)C2)n1 (stereo not shown)
T. brucei: 23.54
Leishmania in macrophages: 27.36

structure: Cc1cc(NC(=O)CC2(Cn3cnnn3)CCCCC2)nn1C
T. brucei: -9.658
Leishmania in macrophages: -8.776 & 6.283

structure: CC(Cn1ccnc1)NCc1ccc2nonc2c1 (stereo not shown)
T. brucei: 4.255
Leishmania in macrophages: 36.82

structure: CS(=O)(=O)NC(=O)c1ccn(-c2ccc(Cl)c(Cl)c2)n1
T. brucei: -59.15
Leishmania in macrophages: 18.49

structure: COCCNc1c(-c2ccc(C)cc2)c(=O)c1=O
T. brucei: -15.53
Leishmania in macrophages: -3.921

structure: O=C(NC1(c2cccc(F)c2)CCOCC1)c1cc[nH]n1
T. brucei: 6.546
Leishmania in macrophages: 7.354

structure: CN1CCc2nc(N(C)C)nc(N3CCC(O)CC3)c2C1
T. brucei: -10.88
Leishmania in macrophages: 14.24

3 of the entries, repeated:

{"structure": "CC(C)c1n[nH]c(C2CN(C(=O)CCc3cscn3)CCO2)n1", "stereo": "stereo not shown", "Leishmania in macrophages": 2.064}
{"structure": "CN1CCCC2(CCN(S(=O)(=O)c3ccc(-c4cnco4)s3)C2)C1=O", "stereo": "stereo not shown", "T. brucei": -40.58, "Leishmania in macrophages": -7.826}
{"structure": "CCc1nc2n(n1)CC(Nc1cc(C)nc3ncnn13)CC2", "stereo": "stereo not shown", "T. brucei": -89.04, "Leishmania in macrophages": 11.49}